Reference: the supplement of paper PMC10849652
The other results are listed elsewhere or left out.

The chains behind the UniProt entries cited, without tags or fusion partners. Where a name states a change or a piece, a line headed by the entry shows the natural chain unless it says otherwise.
UniProt Q9Y6B7: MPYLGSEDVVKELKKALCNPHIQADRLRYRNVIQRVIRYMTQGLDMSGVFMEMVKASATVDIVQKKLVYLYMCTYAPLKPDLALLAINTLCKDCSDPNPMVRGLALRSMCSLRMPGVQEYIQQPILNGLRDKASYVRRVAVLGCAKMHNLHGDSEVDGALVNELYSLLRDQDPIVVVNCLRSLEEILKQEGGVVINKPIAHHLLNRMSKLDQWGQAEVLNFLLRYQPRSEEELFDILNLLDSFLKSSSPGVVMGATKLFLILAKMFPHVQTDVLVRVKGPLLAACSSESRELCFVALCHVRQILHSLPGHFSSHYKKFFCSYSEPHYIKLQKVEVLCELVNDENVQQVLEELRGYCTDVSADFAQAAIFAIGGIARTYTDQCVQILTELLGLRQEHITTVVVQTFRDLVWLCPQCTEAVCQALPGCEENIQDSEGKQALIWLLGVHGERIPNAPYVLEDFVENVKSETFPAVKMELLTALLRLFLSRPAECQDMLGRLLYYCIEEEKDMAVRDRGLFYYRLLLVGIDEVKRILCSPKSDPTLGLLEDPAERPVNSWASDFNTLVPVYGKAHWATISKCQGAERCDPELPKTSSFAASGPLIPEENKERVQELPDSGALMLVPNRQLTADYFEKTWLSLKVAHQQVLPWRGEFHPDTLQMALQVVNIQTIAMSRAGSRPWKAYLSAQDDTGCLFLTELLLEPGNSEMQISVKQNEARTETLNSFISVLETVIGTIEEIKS
UniProt P61966: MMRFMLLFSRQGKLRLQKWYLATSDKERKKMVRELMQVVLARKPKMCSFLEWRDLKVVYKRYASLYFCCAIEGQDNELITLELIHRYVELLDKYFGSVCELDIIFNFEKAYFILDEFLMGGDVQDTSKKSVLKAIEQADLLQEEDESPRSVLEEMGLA
UniProt Q5VTE6: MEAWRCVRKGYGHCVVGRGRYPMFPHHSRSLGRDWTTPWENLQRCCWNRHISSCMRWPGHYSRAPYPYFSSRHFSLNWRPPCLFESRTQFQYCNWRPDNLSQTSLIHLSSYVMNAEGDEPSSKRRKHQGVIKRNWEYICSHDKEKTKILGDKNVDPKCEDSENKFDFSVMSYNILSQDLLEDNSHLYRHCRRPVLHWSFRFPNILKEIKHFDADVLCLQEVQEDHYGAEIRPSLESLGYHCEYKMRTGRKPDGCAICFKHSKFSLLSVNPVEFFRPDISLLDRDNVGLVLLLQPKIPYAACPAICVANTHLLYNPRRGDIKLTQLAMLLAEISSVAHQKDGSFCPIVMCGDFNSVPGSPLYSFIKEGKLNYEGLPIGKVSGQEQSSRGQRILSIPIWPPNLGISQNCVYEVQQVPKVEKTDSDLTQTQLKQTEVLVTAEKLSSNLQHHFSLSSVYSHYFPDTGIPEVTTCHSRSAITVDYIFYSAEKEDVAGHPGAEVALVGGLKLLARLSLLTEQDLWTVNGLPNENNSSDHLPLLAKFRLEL
UniProt P00352: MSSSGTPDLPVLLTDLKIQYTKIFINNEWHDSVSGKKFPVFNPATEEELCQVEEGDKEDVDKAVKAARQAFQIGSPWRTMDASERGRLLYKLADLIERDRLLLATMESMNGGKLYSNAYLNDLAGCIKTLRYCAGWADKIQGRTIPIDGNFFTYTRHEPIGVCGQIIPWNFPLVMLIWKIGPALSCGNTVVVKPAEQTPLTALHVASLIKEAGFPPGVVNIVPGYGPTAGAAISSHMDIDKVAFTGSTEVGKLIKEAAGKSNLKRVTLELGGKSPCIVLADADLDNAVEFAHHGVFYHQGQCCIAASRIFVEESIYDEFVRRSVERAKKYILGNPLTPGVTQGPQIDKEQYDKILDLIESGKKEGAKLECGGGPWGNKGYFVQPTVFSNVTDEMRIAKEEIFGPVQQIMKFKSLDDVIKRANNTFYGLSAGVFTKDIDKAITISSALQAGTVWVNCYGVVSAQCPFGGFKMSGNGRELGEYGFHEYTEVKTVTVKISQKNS
UniProt Q4KMQ2: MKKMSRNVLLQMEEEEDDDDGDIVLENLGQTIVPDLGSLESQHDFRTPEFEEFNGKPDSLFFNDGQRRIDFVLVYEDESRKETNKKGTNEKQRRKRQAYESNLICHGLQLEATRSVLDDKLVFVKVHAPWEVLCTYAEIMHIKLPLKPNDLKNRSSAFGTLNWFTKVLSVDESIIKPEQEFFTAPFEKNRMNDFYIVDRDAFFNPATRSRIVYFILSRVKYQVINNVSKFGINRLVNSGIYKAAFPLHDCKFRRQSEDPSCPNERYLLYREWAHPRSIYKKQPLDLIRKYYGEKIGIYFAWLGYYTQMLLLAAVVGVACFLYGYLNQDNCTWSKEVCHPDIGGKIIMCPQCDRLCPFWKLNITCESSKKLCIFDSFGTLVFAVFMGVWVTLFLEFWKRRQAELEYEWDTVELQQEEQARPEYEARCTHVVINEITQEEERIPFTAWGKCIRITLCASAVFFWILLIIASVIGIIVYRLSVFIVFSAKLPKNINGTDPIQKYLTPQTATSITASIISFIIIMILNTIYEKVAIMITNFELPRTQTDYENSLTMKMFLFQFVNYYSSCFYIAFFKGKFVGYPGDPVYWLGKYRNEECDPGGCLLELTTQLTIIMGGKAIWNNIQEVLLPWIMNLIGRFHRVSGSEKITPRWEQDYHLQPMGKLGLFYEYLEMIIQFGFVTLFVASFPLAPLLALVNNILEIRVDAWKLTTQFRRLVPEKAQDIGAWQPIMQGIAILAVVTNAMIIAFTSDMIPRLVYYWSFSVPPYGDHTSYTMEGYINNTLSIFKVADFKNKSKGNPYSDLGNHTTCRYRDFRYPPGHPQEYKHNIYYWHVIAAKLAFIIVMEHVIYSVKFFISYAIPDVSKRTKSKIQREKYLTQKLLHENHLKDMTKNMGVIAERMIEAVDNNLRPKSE
UniProt P30837: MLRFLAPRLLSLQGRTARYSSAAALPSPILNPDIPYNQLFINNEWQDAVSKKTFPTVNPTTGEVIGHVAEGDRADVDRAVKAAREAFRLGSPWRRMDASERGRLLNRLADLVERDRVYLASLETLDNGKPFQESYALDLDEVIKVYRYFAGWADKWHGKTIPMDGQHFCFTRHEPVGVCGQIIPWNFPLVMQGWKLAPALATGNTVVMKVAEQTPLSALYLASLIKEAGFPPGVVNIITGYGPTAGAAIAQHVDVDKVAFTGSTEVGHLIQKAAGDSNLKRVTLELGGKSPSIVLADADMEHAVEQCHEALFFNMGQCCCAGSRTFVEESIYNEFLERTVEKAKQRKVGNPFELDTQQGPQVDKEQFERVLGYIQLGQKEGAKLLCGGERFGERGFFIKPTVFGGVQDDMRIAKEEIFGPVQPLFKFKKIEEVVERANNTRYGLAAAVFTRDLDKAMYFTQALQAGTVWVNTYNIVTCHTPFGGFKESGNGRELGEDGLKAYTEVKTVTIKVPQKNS
UniProt P53677: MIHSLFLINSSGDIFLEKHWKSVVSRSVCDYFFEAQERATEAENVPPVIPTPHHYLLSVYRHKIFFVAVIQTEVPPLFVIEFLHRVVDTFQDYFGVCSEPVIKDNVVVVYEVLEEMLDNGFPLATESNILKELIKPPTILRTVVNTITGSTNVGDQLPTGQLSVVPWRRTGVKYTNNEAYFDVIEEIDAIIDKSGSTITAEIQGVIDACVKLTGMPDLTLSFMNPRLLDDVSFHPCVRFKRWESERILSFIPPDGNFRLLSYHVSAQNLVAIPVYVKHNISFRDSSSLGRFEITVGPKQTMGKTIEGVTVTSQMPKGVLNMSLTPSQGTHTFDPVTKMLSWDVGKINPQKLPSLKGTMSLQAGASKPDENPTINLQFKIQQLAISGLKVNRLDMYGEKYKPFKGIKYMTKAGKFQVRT
UniProt P20073: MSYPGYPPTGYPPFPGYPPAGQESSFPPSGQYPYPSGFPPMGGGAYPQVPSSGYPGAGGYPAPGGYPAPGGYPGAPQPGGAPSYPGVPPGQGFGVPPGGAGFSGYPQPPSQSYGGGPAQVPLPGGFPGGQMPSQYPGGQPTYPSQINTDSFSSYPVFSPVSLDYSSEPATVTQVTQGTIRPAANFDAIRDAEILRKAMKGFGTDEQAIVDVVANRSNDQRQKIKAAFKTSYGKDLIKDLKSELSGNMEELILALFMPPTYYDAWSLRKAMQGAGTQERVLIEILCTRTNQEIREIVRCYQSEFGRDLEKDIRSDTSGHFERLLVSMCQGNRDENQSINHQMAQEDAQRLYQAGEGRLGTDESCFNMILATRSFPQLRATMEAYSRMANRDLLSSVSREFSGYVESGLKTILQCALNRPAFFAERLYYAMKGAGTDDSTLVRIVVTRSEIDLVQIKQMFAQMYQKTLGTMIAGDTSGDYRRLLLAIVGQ
UniProt Q96BT7: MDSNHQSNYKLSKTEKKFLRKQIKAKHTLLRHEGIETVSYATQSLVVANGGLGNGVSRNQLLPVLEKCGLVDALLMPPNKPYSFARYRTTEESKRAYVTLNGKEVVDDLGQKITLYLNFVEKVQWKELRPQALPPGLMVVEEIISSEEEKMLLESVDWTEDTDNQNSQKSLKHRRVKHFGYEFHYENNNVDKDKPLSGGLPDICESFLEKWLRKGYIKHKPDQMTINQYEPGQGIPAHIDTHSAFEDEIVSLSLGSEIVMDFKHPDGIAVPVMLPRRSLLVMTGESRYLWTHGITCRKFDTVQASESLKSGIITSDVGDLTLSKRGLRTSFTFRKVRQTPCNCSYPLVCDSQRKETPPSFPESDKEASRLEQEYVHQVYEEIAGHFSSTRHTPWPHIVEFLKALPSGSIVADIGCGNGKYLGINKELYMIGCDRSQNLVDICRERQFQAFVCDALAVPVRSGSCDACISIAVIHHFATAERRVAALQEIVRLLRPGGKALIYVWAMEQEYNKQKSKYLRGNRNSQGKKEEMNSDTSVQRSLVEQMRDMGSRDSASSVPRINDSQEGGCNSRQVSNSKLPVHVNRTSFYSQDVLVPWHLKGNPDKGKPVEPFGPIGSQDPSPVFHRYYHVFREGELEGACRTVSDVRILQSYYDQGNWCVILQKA
UniProt Q9Y2T2: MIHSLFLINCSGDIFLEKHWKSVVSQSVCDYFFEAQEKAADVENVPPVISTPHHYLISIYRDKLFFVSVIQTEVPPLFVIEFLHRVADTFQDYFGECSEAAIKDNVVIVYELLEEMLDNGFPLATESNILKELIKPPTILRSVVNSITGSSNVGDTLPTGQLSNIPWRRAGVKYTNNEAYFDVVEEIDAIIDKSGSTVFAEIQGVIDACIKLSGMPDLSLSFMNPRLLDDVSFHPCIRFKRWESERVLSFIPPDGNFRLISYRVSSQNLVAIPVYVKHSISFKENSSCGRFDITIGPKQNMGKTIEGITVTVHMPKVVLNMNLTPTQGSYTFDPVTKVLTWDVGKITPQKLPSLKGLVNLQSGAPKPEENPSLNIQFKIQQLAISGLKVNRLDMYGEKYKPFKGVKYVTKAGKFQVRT
UniProt P07355, whole entry, looked up: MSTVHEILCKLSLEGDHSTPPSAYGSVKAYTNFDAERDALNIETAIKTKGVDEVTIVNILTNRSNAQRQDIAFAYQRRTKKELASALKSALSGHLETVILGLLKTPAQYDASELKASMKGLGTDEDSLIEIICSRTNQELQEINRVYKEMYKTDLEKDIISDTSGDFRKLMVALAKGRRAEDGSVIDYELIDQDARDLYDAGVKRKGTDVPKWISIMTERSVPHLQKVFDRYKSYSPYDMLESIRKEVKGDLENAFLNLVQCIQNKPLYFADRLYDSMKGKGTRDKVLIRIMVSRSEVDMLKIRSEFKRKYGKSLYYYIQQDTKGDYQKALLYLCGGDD
UniProt P30038: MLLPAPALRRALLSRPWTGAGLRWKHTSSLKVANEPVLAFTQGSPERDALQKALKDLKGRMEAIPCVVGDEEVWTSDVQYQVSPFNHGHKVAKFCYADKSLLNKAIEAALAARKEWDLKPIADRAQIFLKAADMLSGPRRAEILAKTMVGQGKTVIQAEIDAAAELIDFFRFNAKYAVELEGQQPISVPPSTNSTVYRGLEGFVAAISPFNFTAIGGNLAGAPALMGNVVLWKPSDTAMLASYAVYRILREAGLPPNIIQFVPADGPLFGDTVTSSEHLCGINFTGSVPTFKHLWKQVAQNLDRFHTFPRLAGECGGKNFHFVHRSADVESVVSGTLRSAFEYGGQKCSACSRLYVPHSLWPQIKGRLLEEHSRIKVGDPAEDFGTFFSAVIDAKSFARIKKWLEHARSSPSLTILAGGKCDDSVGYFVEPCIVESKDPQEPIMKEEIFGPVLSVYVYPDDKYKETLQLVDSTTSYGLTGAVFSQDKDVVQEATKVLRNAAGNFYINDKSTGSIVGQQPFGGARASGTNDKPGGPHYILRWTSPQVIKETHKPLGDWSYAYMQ

Each target was assayed with C/C(=N\NC(=O)C1=CC(=CC=C1)S(=O)(=O)N2CCOCC2)/C3=C(C=CC(=C3)Cl)O (assay: log2 fold change, soluble protein after heating vs DMSO (PISA); higher = thermal stabilisation; K562 lysate, 10 uM; active = over 0.2 and 3.5 SD of the protein, either way, in both replicates (recomputed)).
Method in brief: (§1)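 Following dounce homogenisation of K562 pellets in PBS pH 7.4 with 1 mM MgCl2, crude extract at 1 mg/mL protein was incubated for 30 min with 10 μM compound. Aliquots were then heated for 3 min over 48°C-58°C and pooled, NP-40 was added to 0.5% at 4°C, and soluble protein was recovered as the supernatant at 21,000xg for 90 min. Channel-sum-equalised TMTpro 16plex LC-MS/MS quantified this protein. Each value, from duplicates, is a log-two fold change in thermal stability relative to solvent controls.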

log2 fold change, inactive:
AP2S1 (UniProt P53680) -0.037
ALDH2 (UniProt P05091) 0.009
ANKRD27 (UniProt Q96NW4) -0.025
ANP32B (UniProt Q92688) 0.009
ANXA3 (UniProt P12429) 0.243
ALDOC (UniProt P09972) 0.09
AP4B1 (UniProt Q9Y6B7) -0.038
ANLN (UniProt Q9NQW6) -0.142
AP1S1 (UniProt P61966) -0.088
ANGEL2 (UniProt Q5VTE6) 0.055
AP2A1 (UniProt O95782) 0.026

What follows are targets tested with C1=CC(=CC=C1C2=NC3=C(N2)C=C(C=C3)C(=O)N)OC4=CC=C(C=C4)Cl in the same assay as above.
Method in brief: as §1

log2 fold change, inactive:
ANKRD54 (UniProt Q6NXT1) 0.122
AP1S2 isoform 2 (UniProt P56377) -0.088
ALDH1A1 (UniProt P00352) -0.054
ALDH6A1 (UniProt Q02252) -0.04
ANXA11 (UniProt P50995) 0.025
ANO6 (UniProt Q4KMQ2) -0.05
ALDH1B1 (UniProt P30837) -0.035
AP4E1 (UniProt Q9UPM8) 0.009
ALG12 (UniProt Q9BV10) -0.007
ANKFY1 isoform 4 (UniProt Q9P2R3) -0.008
ANKRD52 (UniProt Q8NB46) 0.026
AP3M2 (UniProt P53677) -0.024
ALYREF (UniProt Q86V81) -0.023
ANXA7 (UniProt P20073) 0.013
AKT1S1 isoform 3 (UniProt Q96B36) -0.08
AMPD3 isoform 4 (UniProt Q01432) 0.031
AP2B1 isoform 2 (UniProt P63010) -0.001
ALKBH8 isoform 4 (UniProt Q96BT7) 0.017
AP3M1 (UniProt Q9Y2T2) -0.018
ANXA2 isoform 2 (UniProt P07355) 0.023
ANXA6 (UniProt P08133) -0.004
ALDH4A1 (UniProt P30038) 0.031
AP2S1 (UniProt P53680) -0.026
ALDH2 (UniProt P05091) -0.062
ANKRD27 (UniProt Q96NW4) 0.07
ANP32B (UniProt Q92688) 0.01
ANXA3 (UniProt P12429) -0.001
ALDOC (UniProt P09972) 0.005
AP4B1 (UniProt Q9Y6B7) 0.016
ANLN (UniProt Q9NQW6) 0.007
AP1S1 (UniProt P61966) -0.064
ANGEL2 (UniProt Q5VTE6) 0.034
AP2A1 (UniProt O95782) -0.011
